Where two headings read alike, the source gives them in different places. These are yes or no findings as the source states them, for the method shown. Binding seen in cells or lysates may run through a third protein. A yes stands for co-enrichment or nearness to the bait. Other partners may have been found. For part of these data: No binding means not detected with the bait.
Key:
[1] = target: RNA cap guanine-7 methyltransferase, RNMT (endogenous, mouse) (mouse (endogenous in brain and primary neurons)) (UniProt Q9D0L8); test: affinity purification with mass spectrometry
[2] = target: RNA cap guanine-7 methyltransferase, RNMT (endogenous, mouse) (mouse (endogenous in brain and primary neurons)) (UniProt Q9D0L8); test: affinity purification with mass spectrometry; remark: listed apart in the source

Sequences of proteins named here, by UniProt entry; tags and fusion partners are left off.
UniProt Q9D0L8: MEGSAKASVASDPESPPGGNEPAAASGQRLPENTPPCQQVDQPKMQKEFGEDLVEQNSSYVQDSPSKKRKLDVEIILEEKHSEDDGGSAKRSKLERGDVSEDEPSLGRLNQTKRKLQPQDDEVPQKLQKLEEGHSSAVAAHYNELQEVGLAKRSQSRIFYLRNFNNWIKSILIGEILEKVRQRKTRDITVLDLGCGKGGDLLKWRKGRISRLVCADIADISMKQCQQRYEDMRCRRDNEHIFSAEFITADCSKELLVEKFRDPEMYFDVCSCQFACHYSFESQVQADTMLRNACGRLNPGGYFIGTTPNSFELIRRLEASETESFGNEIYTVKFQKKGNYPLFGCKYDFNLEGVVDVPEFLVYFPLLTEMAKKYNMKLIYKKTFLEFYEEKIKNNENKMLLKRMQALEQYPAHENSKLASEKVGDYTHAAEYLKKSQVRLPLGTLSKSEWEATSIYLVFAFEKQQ
UniProt Q6P5F9: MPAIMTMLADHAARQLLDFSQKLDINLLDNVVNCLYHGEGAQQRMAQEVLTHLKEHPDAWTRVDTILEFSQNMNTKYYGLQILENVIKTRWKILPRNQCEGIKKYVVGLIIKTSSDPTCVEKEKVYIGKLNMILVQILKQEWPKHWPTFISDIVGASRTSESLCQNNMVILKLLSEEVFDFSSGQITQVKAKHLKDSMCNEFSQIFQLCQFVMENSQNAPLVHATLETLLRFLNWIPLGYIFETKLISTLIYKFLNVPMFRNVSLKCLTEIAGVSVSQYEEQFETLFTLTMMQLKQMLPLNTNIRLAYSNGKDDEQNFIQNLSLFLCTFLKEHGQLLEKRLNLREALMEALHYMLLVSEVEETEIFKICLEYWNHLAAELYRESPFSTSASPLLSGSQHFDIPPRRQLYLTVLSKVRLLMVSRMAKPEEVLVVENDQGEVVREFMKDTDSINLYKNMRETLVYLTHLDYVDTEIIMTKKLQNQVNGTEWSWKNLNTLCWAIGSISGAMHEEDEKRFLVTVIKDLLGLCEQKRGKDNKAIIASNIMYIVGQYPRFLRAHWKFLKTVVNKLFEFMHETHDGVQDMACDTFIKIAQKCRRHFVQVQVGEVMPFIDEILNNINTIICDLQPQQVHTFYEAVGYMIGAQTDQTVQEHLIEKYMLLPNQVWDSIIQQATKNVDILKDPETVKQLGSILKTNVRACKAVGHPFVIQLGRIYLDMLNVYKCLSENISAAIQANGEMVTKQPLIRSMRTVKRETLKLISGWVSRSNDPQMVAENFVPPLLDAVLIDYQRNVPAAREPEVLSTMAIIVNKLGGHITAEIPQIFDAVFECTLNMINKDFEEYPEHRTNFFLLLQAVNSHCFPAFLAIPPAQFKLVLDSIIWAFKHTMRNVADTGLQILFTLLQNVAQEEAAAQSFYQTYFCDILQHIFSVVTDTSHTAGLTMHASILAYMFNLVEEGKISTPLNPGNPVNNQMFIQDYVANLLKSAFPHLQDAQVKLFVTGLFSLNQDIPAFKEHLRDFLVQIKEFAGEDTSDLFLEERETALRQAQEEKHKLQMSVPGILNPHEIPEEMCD
UniProt P28652: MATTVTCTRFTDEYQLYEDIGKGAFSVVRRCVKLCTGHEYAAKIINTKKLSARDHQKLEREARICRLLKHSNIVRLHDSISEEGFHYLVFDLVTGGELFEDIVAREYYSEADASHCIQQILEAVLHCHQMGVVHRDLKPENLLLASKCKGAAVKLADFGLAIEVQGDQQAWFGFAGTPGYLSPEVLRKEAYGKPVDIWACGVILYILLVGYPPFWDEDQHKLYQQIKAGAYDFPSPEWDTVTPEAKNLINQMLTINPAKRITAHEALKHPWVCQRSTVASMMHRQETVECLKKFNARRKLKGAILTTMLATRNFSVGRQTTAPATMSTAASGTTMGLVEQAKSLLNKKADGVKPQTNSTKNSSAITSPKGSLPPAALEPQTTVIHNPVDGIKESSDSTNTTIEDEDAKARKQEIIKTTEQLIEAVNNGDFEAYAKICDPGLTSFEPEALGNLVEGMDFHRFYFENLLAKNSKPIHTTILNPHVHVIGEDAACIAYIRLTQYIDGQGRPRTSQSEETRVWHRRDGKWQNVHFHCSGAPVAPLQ

Substance | binding [1] | binding [2]
CRM1 (endogenous, mouse) (from UniProt Q6P5F9 1-1071) | no binding | –
Ca2+/calmodulin-dependent protein kinase II beta, CaMKIIβ (endogenous, mouse) (from UniProt P28652 1-542) (enzyme) | binds | binds

From paper doi:10.1101/2025.10.30.685591
